{"source": "PubChem BioAssay AID504648", "about": "(National Center for Advancing Translational Sciences (NCATS), 2011)", "note": "In all, about 390,000 compounds went through this assay and about 610 (0.16%) were called active. Inconclusive means that the source gave no clear call. Such entries were picked first, then a sample of the others. Calls come from the whole dose curve; as a rule, active = well fitted inhibition curve with a large enough effect; inconclusive = small, poorly fitted or top-dose-only effect, or effect the other way, or another doubt; inactive = no such curve, though single readings can be large or run the other way. Where the call is inconclusive, the potency comes from a doubtful curve fit. Potency is the fitted concentration of half-maximal effect."}
{"test": "Nrf2 qHTS screen for inhibitors: counterscreen for cytotoxicity", "conditions": "A549 ARE-Fluc cells, CellTiter-Fluor viability, 18-24 h; series mostly up to 46 µM", "outline": "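A549 ARE_Fluc cells in 5% FBS OPTI-MEM were exposed to compounds in concentration-response for 18-24 h at 37 deg C. Viability was read by CellTiter-Fluor fluorescence (Ex 405/Em 525) after 30 min, before the luciferase read.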"}
{"compound": "CCN(CC)S(=O)(=O)c1ccc2c(c1)c(=O)c(C(=O)N1CCN(c3cc(Cl)ccc3C)CC1)cn2C", "Potency": "inconclusive: 2.31 µM [activator, partial curve, poor fit]"}
{"compound": "COc1ccc(N2CCN(C(=O)c3ccc(COc4ccc([N+](=O)[O-])cc4)o3)CC2)cc1", "Potency": "inactive"}
{"compound": "O=C(CNC(=O)c1ccccc1F)OCc1nc2ccccc2s1", "Potency": "inactive"}
{"compound": "Cc1ccc(NC(=O)C2CCN(S(=O)(=O)c3cccc4nonc34)CC2)cc1C", "Potency": "inconclusive: 14.6 µM [falling, partial curve, poor fit]"}
{"compound": "Cc1ccccc1CNc1ccc(C(CC(N)=O)NC(=O)c2ccc(Br)cc2)cc1[N+](=O)[O-]", "note": "(stereo unspecified)", "Potency": "inconclusive: 29.1 µM [falling, partial curve, poor fit]"}
{"compound": "COc1ccc(-n2nc([N+](=O)[O-])c(=NCCc3ccccc3)n2O)cc1", "Potency": "inconclusive: 29.1 µM [falling, partial curve, poor fit]"}
{"compound": "Cc1ccc(NC(=S)NC(=O)c2ccc(F)cc2)cc1S(=O)(=O)Nc1ccccc1Cl", "Potency": "inconclusive: 16.4 µM [falling, partial curve, poor fit]"}
{"compound": "O=C(c1ccc(Cl)c(S(=O)(=O)Nc2ccccc2C(=O)N2CCc3ccccc3C2)c1)N1CCc2ccccc2C1", "Potency": "inconclusive: 20.6 µM [falling, partial curve, poor fit]"}
{"compound": "O=C(NCc1ccc(F)cc1)c1cc(-c2ccc(Cl)cc2)n[nH]1", "Potency": "inactive"}
{"compound": "O=C(C1=C(O)C(=O)N(c2ncccn2)C1c1ccc(Cl)cc1)c1ccco1", "note": "(stereo unspecified)", "Potency": "inconclusive: 23.1 µM [falling, partial curve, poor fit]"}
{"compound": "Cc1nn(C)c(C)c1/C=C/C(=O)O", "Potency": "inconclusive: 18.4 µM [activator, partial curve, poor fit]"}
{"compound": "CC(C)(C)C(=O)/C=C(\\N)c1ccncc1", "Potency": "inconclusive: 14.6 µM [falling, partial curve, poor fit]"}
{"compound": "NC(=O)c1cc([N+](=O)[O-])ccc1NCc1ccc(N)cc1", "Potency": "inconclusive: 29.1 µM [falling, partial curve, poor fit]"}
{"compound": "CCOC(=O)CSc1nc2ccccc2c(=O)n1Cc1ccco1", "Potency": "inconclusive: 6.51 µM [activator, partial curve, poor fit]"}
{"compound": "CCCN1Cc2cccc(C(=O)NCc3ccccc3)c2C1=O", "Potency": "inconclusive: 29.1 µM [activator, partial curve, poor fit]"}
{"compound": "COC(=O)Cc1cc(=O)oc2cc(OC)ccc12", "Potency": "inconclusive: 20.6 µM [activator, partial curve, poor fit]"}
{"compound": "CC(C)CCN1C(=O)c2ccc(C(=O)Nc3ccccn3)cc2C1=O", "Potency": "inconclusive: 10.3 µM [falling, partial curve, poor fit]"}
{"compound": "O=C1CC(N2CCN(S(=O)(=O)c3ccc(Cl)cc3)CC2)C(=O)N1CCc1ccccc1", "note": "(stereo unspecified)", "Potency": "inconclusive: 3.66 µM [activator, full curve, poor fit]"}
{"compound": "CC(=O)Oc1ccc(C23c4ccccc4C2(OC(C)=O)c2cc(OC(C)=O)ccc23)cc1", "note": "(stereo unspecified)", "Potency": "inconclusive: 20.6 µM [falling, single point]"}
{"compound": "COc1ccc(OC)c(COC(=O)c2cc([N+](=O)[O-])ccc2N2CCOCC2)c1", "Potency": "inconclusive: 9.2 µM [falling, partial curve, poor fit]"}
{"compound": "CCc1nnc(NC(=O)c2ccc(NS(=O)(=O)c3ccccc3)cc2)s1", "Potency": "inconclusive: 32.6 µM [falling, partial curve, poor fit]"}
{"compound": "CC(=O)N1c2ccc(S(=O)(=O)NCCC(=O)Nc3ccc(Br)c(C)c3)cc2CC1C", "note": "(stereo unspecified)", "Potency": "inactive"}
{"compound": "Cc1ccc(C(=O)NNc2ncnc3c2cnn3C)cc1", "Potency": "inactive"}
{"compound": "CCN(CCCNC(=O)c1cc2c(Cl)nc3ccccc3c2s1)Cc1ccccc1", "Potency": "inactive"}
{"compound": "COc1ccc(/C=C2\\SC(=S)N(CC(=O)N3CCN(C)CC3)C2=O)cc1", "Potency": "inconclusive: 18.4 µM [falling, partial curve]"}
{"compound": "CC(Sc1nc(N)c2c3c(sc2n1)CSC(C)(C)C3)C(=O)Nc1ccccc1", "note": "(stereo unspecified)", "Potency": "inconclusive: 29.1 µM [falling, single point]"}
{"compound": "CCC(C)(C)n1nnnc1C(C(C)C)N(Cc1ccco1)Cc1cc2cc3c(cc2[nH]c1=O)OCO3", "note": "(stereo unspecified)", "Potency": "inconclusive: 18.4 µM [falling, partial curve]"}
{"compound": "CC1C/C(=C/c2cccn2C)C(=O)/C(=C/c2cccn2C)C1", "note": "(stereo unspecified)", "Potency": "inconclusive: 23.1 µM [falling, single point]"}
{"compound": "O=C1C=CC(=O)N1Cc1ccccc1", "Potency": "inconclusive: 29.1 µM [falling, single point]"}
{"compound": "CCc1ccc(S(=O)(=O)/N=C2\\C=C(Nc3cccc(C(=O)O)c3)C(=O)c3ccccc32)cc1", "Potency": "inconclusive: 23.1 µM [falling, single point]"}
{"compound": "CN1CCN(c2ccc(S(=O)(=O)N3CCCCC3)cc2NC(=O)COc2cccc(Cl)c2)CC1", "Potency": "inconclusive: 18.4 µM [falling, partial curve, poor fit]"}
{"compound": "Cn1c(=N)n(CC(O)c2cccc3ccccc23)c2ccccc21", "note": "(stereo unspecified)", "Potency": "inconclusive: 29.1 µM [falling, partial curve, poor fit]"}
{"compound": "COc1ccc(OC)c(S(=O)(=O)N2CCCC2C(=O)NC(C)c2ccccc2)c1", "note": "(stereo unspecified)", "Potency": "inconclusive: 6.51 µM [falling, single point]"}
{"compound": "O=C(Nc1ccc(OC(F)(F)F)cc1)C1CCN(S(=O)(=O)c2cccs2)CC1", "Potency": "inactive"}
{"compound": "CCN(CC)C(=O)c1sc2c(c1C)c(=O)n(-c1ccc(OC)cc1OC)c(=O)n2CC(=O)c1ccc(Cl)cc1", "Potency": "inactive"}
{"compound": "Cc1cc(C(=O)COC(=O)c2ccc(F)cc2)c(C)n1C", "Potency": "inactive"}
{"compound": "Cc1ccc(NC(=O)CNC(=O)c2ccc(OC(F)F)cc2)cc1S(=O)(=O)N1CCCCCC1", "Potency": "inconclusive: 25.9 µM [falling, partial curve, poor fit]"}
{"compound": "CC(=O)NC(c1ccccc1)c1cc(Cl)c2cccnc2c1O", "note": "(stereo unspecified)", "Potency": "inconclusive: 16.4 µM [falling, partial curve, poor fit]"}
{"compound": "Nn1c(COc2ccccc2F)nnc1SCC(=O)NC1CCS(=O)(=O)C1", "note": "(stereo unspecified)", "Potency": "inactive"}
{"compound": "Cc1cccc(C(=O)NC(=S)NNC(=O)c2ccccc2Cl)c1", "Potency": "inconclusive: 29.1 µM [falling, partial curve, poor fit]"}
{"compound": "NC(=O)c1c(NC(NC(=O)c2ccco2)C(=O)c2ccc(Cl)cc2)sc2c1CCCC2", "note": "(stereo unspecified)", "Potency": "inconclusive: 29.1 µM [falling, single point]"}
{"compound": "Cc1cc(C)c(S(=O)(=O)Nc2ccc(-c3ccc(N4CCCCCC4)nn3)cc2)c(C)c1", "Potency": "inactive"}
{"compound": "CC(NC(=S)Nc1ccc(Cl)cc1Cl)C(c1cccs1)N1CCCC1", "note": "(stereo unspecified)", "Potency": "inconclusive: 16.4 µM [falling, single point]"}
{"compound": "CCN(Cc1ccccc1)S(=O)(=O)c1cc(C(=O)Nc2cc(Cl)cc(Cl)c2)ccc1F", "Potency": "inconclusive: 25.9 µM [falling, single point]"}
{"compound": "O=C1/C(=C/c2ccc(F)cc2)SC(=S)N1CCCC(=O)N1CCCCC1CCO", "note": "(stereo unspecified)", "Potency": "inconclusive: 20.6 µM [falling, single point]"}
{"compound": "CSc1nnc(C)c(/C=C/NOCc2ccc(Cl)cc2)n1", "Potency": "inactive"}
{"compound": "N#Cc1nc(Cc2ccccc2)oc1N1CCN(c2ccccc2)CC1", "Potency": "inactive"}
{"compound": "COc1cccc(CN2C(=O)c3cccc(N)c3C2=O)c1", "Potency": "inconclusive: 7.31 µM [activator, partial curve, poor fit]"}
{"compound": "Cc1cccc(OCCC(=O)Nc2ccc(C)c(S(=O)(=O)N3CCCCC3)c2)c1", "Potency": "inconclusive: 32.6 µM [falling, partial curve, poor fit]"}
{"compound": "CN(C)c1ccc(C(O)c2cc3ccccc3s2)cc1", "note": "(stereo unspecified)", "Potency": "inconclusive: 20.6 µM [falling, partial curve, poor fit]"}
{"compound": "Cc1ccc(C(C)C)c(OCC(=O)Nc2cc(-c3nc4ccccc4[nH]3)ccc2C)c1", "Potency": "active: 9.2 µM"}
{"compound": "COc1ccc(C2c3c(ncn(Cc4ccco4)c3=N)Oc3ccc4ccccc4c32)cc1", "note": "(stereo unspecified)", "Potency": "inactive"}
{"compound": "Cc1cccc(-n2c(C)cc(C(=O)C(=O)Nc3nncs3)c2C)c1", "Potency": "inconclusive: 13 µM [activator, partial curve, poor fit]"}
{"compound": "COc1ccc(N2CCN(c3ncnc4scc(-c5ccccc5)c34)CC2)cc1", "Potency": "inactive"}
{"compound": "COc1ccc(CCNc2ncnc3c2c(-c2ccccc2)cn3-c2ccc(Cl)cc2)cc1OC", "Potency": "inactive"}
{"compound": "CCc1cccc2c1Sc1ccccc1CC2N1CCNCC1", "note": "(stereo unspecified)", "Potency": "inconclusive: 11.6 µM [activator, partial curve, poor fit]"}
{"compound": "Cc1ccc(Nc2ncnc3ccccc23)cc1", "Potency": "inactive"}
{"compound": "Cc1nn(C)c(Oc2ccccc2)c1CCNC(=O)CCl", "Potency": "inconclusive: 25.9 µM [falling, single point]"}
{"compound": "CN(C)c1ccc(CN(C(=O)/C=C/c2ccccc2Cl)C2CCS(=O)(=O)C2)cc1", "note": "(stereo unspecified)", "Potency": "inconclusive: 29.1 µM [falling, partial curve, poor fit]"}
{"compound": "CC1=C(C(=O)OCc2ccc(C)cc2)C(c2ccccc2C(F)(F)F)CC(=O)N1", "note": "(stereo unspecified)", "Potency": "inactive"}
{"compound": "Cc1ccc2oc(-c3ccccc3)nc2c1", "Potency": "inactive"}
{"compound": "Cc1ccc(OCCSc2nc3ccccc3n2CC(=O)N2CCOCC2)cc1", "Potency": "inactive"}
{"compound": "Cc1cccc(OCCn2cc(/C=N/NC(=O)c3ccncc3)c3ccccc32)c1", "Potency": "inconclusive: 20.6 µM [falling, single point]"}
{"compound": "COc1cccc(/C=C(/C(=O)OCC(=O)NC2CCCCCCC2)c2ccccc2)c1", "Potency": "inconclusive: 29.1 µM [falling, single point]"}
{"compound": "CC(=O)N1c2ccc(S(=O)(=O)NCCC(=O)Nc3ccc(OC(F)(F)F)cc3)cc2CC1C", "note": "(stereo unspecified)", "Potency": "inactive"}
{"compound": "O=C1c2ccccc2C(=O)C1C(=O)C1CC1", "Potency": "inconclusive: 18.4 µM [falling, partial curve, poor fit]"}
